Data source: PubChem BioAssay AID1259405 (NCATS, 2018)
The whole screen tested about 50,000 reagents; below is an unselected part. Of all reagents, about 4,000 (8%) were called active. 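Mouse siRNA library applied to hamster cells; one well for each siRNA.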 A number with no mark means an inactive call. Reagents against one gene are numbered here.

Assay: 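Knock-downs that lift recombinant protein yield in hamster ovary cells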 (primary screen)
Cell system: Chinese hamster CHO-K1 ovary cells with stable secreted eGFP expression
Reagent: single siRNA against mouse genes, 0.8 pmol siRNA per well (2 µl of 400 nM stock)
Duration: 3 days
Read-out: 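Per-well intracellular GFP measured by laser scanning cytometry, plus viability from ATP luminescence, each relative to plate median of non-targeting control wells, in %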
Scale: GFP, % of control: higher = more GFP per well, higher productivity; viability (ATP), % of control: higher = more viable cells (more ATP)
Hit rule: 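Called active when intracellular GFP, relative to negative control, is at or above 120%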

Zfp37 (zinc finger protein 37) #1 — GFP, % of control: 95.1; viability (ATP), % of control: 67.2
Zfp37 (zinc finger protein 37) #2 — GFP, % of control: 81.6; viability (ATP), % of control: 92.3
Zfp37 (zinc finger protein 37) #3 — GFP, % of control: 97.8; viability (ATP), % of control: 116
Tmc5 (transmembrane channel-like gene family 5) #1 — GFP, % of control: 134 (active); viability (ATP), % of control: 93.2
Tmc5 (transmembrane channel-like gene family 5) #2 — GFP, % of control: 61.5; viability (ATP), % of control: 62.9
Tmc5 (transmembrane channel-like gene family 5) #3 — GFP, % of control: 45.4; viability (ATP), % of control: 73.2
Vkorc1 (vitamin K epoxide reductase complex, subunit 1) #1 — GFP, % of control: 49.1; viability (ATP), % of control: 55.3
Vkorc1 (vitamin K epoxide reductase complex, subunit 1) #2 — GFP, % of control: 88.2; viability (ATP), % of control: 72.9
Vkorc1 (vitamin K epoxide reductase complex, subunit 1) #3 — GFP, % of control: 78.9; viability (ATP), % of control: 82.1
Klre1 (killer cell lectin-like receptor family E member 1) #1 — GFP, % of control: 139 (active); viability (ATP), % of control: 40.9
Klre1 (killer cell lectin-like receptor family E member 1) #2 — GFP, % of control: 68.6; viability (ATP), % of control: 56.9
Klre1 (killer cell lectin-like receptor family E member 1) #3 — GFP, % of control: 66.2; viability (ATP), % of control: 61.2
Wnt3 (WNT family member 3) #1 — GFP, % of control: 80.8; viability (ATP), % of control: 67.6
Wnt3 (WNT family member 3) #2 — GFP, % of control: 65.5; viability (ATP), % of control: 73.4
Wnt3 (WNT family member 3) #3 — GFP, % of control: 39.8; viability (ATP), % of control: 65.5
Camk2a (calcium/calmodulin-dependent protein kinase II alpha) #1 — GFP, % of control: 148 (active); viability (ATP), % of control: 117
Camk2a (calcium/calmodulin-dependent protein kinase II alpha) #2 — GFP, % of control: 88.8; viability (ATP), % of control: 64.9
Camk2a (calcium/calmodulin-dependent protein kinase II alpha) #3 — GFP, % of control: 61.3; viability (ATP), % of control: 65.4
Otx1 (orthodenticle homeobox 1) #1 — GFP, % of control: 104; viability (ATP), % of control: 100
Otx1 (orthodenticle homeobox 1) #2 — GFP, % of control: 113; viability (ATP), % of control: 81.8
Smim30 (small integral membrane protein 30) #1 — GFP, % of control: 72.1; viability (ATP), % of control: 63.8
Smim30 (small integral membrane protein 30) #2 — GFP, % of control: 65.8; viability (ATP), % of control: 44.2
Smim30 (small integral membrane protein 30) #3 — GFP, % of control: 75.6; viability (ATP), % of control: 83.5
Tacc3 (transforming, acidic coiled-coil containing protein 3) #1 — GFP, % of control: 136 (active); viability (ATP), % of control: 110
Tacc3 (transforming, acidic coiled-coil containing protein 3) #2 — GFP, % of control: 40; viability (ATP), % of control: 91.8
Tacc3 (transforming, acidic coiled-coil containing protein 3) #3 — GFP, % of control: 143 (active); viability (ATP), % of control: 124
Rxfp2 (relaxin/insulin-like family peptide receptor 2) #1 — GFP, % of control: 64.8; viability (ATP), % of control: 72
Rxfp2 (relaxin/insulin-like family peptide receptor 2) #2 — GFP, % of control: 95.6; viability (ATP), % of control: 30
Rxfp2 (relaxin/insulin-like family peptide receptor 2) #3 — GFP, % of control: 78.2; viability (ATP), % of control: 42.6

2 entries from above, set out differently.
{"gene knocked down": "Vkorc1 (vitamin K epoxide reductase complex, subunit 1)", "reagent no.": 3, "GFP, % of control": 78.9, "viability (ATP), % of control": 82.1}
{"gene knocked down": "Klre1 (killer cell lectin-like receptor family E member 1)", "reagent no.": 1, "GFP, % of control": "139 (active)", "viability (ATP), % of control": 40.9}
